Compounds and concentrations:
MK-2206 (2 µM): NC1(c2ccc(-c3nc4ccn5c(=O)[nH]nc5c4cc3-c3ccccc3)cc2)CCC1
sorafenib (2 µM): CNC(=O)c1cc(Oc2ccc(NC(=O)Nc3ccc(Cl)c(C(F)(F)F)c3)cc2)ccn1
lestaurtinib (0.02 µM): C[C@]12O[C@H](C[C@]1(O)CO)n1c3ccccc3c3c4c(c5c6ccccc6n2c5c31)CNC4=O
cisplatin (8 µM): N.N.[Cl][Pt][Cl]
vatalanib (10 µM): Clc1ccc(Nc2nnc(Cc3ccncc3)c3ccccc23)cc1
YM155 (0.002 µM): COCC[n+]1c2c(n(Cc3cnccn3)c1C)C(=O)c1ccccc1C2=O
CHIR-265 (0.4 µM): Cn1c(Nc2ccc(C(F)(F)F)cc2)nc2cc(Oc3ccnc(-c4ncc(C(F)(F)F)[nH]4)c3)ccc21
OSU-03012 (5 µM): NCC(=O)Nc1ccc(-n2nc(C(F)(F)F)cc2-c2ccc3c(ccc4ccccc43)c2)cc1
CP-690550 (5 µM): C[C@@H]1CCN(C(=O)CC#N)C[C@@H]1N(C)c1ncnc2[nH]ccc12
FK866 (0.05 µM): O=C(/C=C/c1cccnc1)NCCCCC1CCN(C(=O)c2ccccc2)CC1
fingolimod (10 µM): CCCCCCCCc1ccc(CCC(N)(CO)CO)cc1
dovitinib (0.5 µM): CN1CCN(c2ccc3nc(-c4c(N)c5c(F)cccc5[nH]c4=O)[nH]c3c2)CC1
perifosine (2 µM): CCCCCCCCCCCCCCCCCCOP(=O)([O-])OC1CC[N+](C)(C)CC1
RKI-983 (2 µM): C[C@@H](N)c1ccc(C(=O)Nc2ccnc3[nH]ccc23)cc1
SNS-032 (0.05 µM): CC(C)(C)c1cnc(CSc2cnc(NC(=O)C3CCNCC3)s2)o1
nutlin-3 (0.5 µM): COc1ccc(C2=N[C@@H](c3ccc(Cl)cc3)[C@@H](c3ccc(Cl)cc3)N2C(=O)N2CCNC(=O)C2)c(OC(C)C)c1
Src-I1 (10 µM): COc1cc2ncnc(Nc3ccc(Oc4ccccc4)cc3)c2cc1OC
CX-4945 (2 µM): O=C(O)c1ccc2c(c1)nc(Nc1cccc(Cl)c1)c1ccncc12
dasatinib (0.02 µM): Cc1nc(Nc2ncc(C(=O)Nc3c(C)cccc3Cl)s2)cc(N2CCN(CCO)CC2)n1
everolimus (0.1 µM): CO[C@H]1C[C@@H]2CC[C@@H](C)[C@@](O)(O2)C(=O)C(=O)N2CCCC[C@H]2C(=O)O[C@H]([C@H](C)C[C@@H]2CC[C@@H](OCCO)[C@H](OC)C2)CC(=O)[C@H](C)/C=C(\C)[C@@H](O)[C@@H](OC)C(=O)[C@H](C)C[C@H](C)/C=C/C=C/C=C/1C

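The test systems are human melanoma cell lines, treated with two drugs together for 72 h and then stained and imaged. The read-out is cell count (nuclei) in % of the DMSO control; lower values mean stronger growth inhibition or killing. Concentrations were fixed for each drug; these are the higher of two levels. No replicate spread is given; individual values may be noisy.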
Only some of the drugs and lines screened are listed, without regard to their results.
An entry leaves out what has no value listed here.
A dash means that no value is listed here.

* Src-I1 + CP-690550 : WM451Lu: 90.2
* CX-4945 + perifosine : WM451Lu: 87.8; A101D: 83.8; COLO 792: 75.3; C32: 85.5; COLO 829: 52.4
* everolimus + Src-I1 : WM451Lu: 71.2
* lestaurtinib + perifosine : WM451Lu: 74.8; COLO 792: 61.5; C32: 125; COLO 829: 97.0
* perifosine + cisplatin : WM451Lu: 109; COLO 792: 76.5; C32: 94.3; COLO 829: 85.5
* everolimus + perifosine : WM451Lu: 92.1; COLO 792: 56.0
* Src-I1 + fingolimod : WM451Lu: 7.0; COLO 792: 2.4
* CP-690550 + FK866 : WM451Lu: 74.8; COLO 792: 30.6; C32: 102; COLO 829: 52.7
* RKI-983 + MK-2206 : WM451Lu: 80.6; A101D: 70.7; COLO 792: 43.3; C32: 56.4; COLO 829: 89.3
* CP-690550 + OSU-03012 : WM451Lu: 103; COLO 792: 91.5; C32: 98.4; COLO 829: 83.1
* SNS-032 + nutlin-3 : WM451Lu: 49.4; COLO 792: 48.3; C32: 72.8; COLO 829: 70.7
* cisplatin + RKI-983 : WM451Lu: 97.2; COLO 792: 62.4; C32: 81.3; COLO 829: 83.5
* sorafenib + perifosine : WM451Lu: 118; COLO 792: 115
* perifosine + CP-690550 : COLO 792: 23.8
* CHIR-265 + vatalanib : COLO 792: 18.0
* RKI-983 + dasatinib : WM451Lu: 75.5; A101D: 72.7; COLO 792: 47.2; C32: 49.1; COLO 829: 59.7
* dasatinib + vatalanib : COLO 792: 36.2; C32: 56.6; COLO 829: 37.8
* dovitinib + perifosine : WM451Lu: 91.1; COLO 792: 61.7
* CP-690550 + YM155 : WM451Lu: 139
* perifosine + FK866 : WM451Lu: 125; COLO 792: 51.3
* SNS-032 + CX-4945 : WM451Lu: 55.3; COLO 792: 64.1; C32: 70.8; COLO 829: 44.2
* RKI-983 + sorafenib : WM451Lu: 70.0; A101D: 71.8; COLO 792: 81.3; C32: 69.6; COLO 829: 95.2
* CHIR-265 + everolimus : WM451Lu: 39.4; COLO 792: 11.7; C32: 51.3; COLO 829: 44.9

Repeated from the top, 2 entries:

Drugs,WM451Lu,A101D,COLO 792,C32,COLO 829
Src-I1 + CP-690550,90.2,-,-,-,-
CX-4945 + perifosine,87.8,83.8,75.3,85.5,52.4

Values as published with doi:10.1371/journal.pone.0140310, rounded.